These results are taken from paper PMC12314914.

For at least one entry, the source does not settle the construct or the ends of the probe. A negative result means that nothing was seen under these conditions. At least one verdict was read from the data and is not stated in words by the source.

The subject of the series is VanR2 (GntR-type transcriptional repressor) (Pseudomonas sp. NGC7). Nature of the series: EMSA. To be noted: 20 mM HEPES pH 7.6, 1 mM EDTA, 10 mM (NH4)2SO4, 1 mM DTT, 0.2% Tween 20, 30 mM KCl, 1 mM MgCl2, 0.1 ug/uL poly(dI-C), 0.01 ug/uL poly-L-lysine; 1.5 uM VanR2, 8 nM DNA; recombinant protein; protein details: C-terminal His tag (pET-21a); letters put together from the description.

As to “CAGCGGGTGCCTTTGTTCGGTGATAGCCAGGACTTTTAGCCCCGTTTAGGAAGATTCTGCCCTACAAAGTCCCAAATGCCAAAAAAGCATGATTACCCGATTGACTTCGGATAGGGCCAACCATAACATAAAGTCCCAATAGCGGCAAAAACCTGAAATTTACGCTACGGATACCCTGACTGAAAGTCCCAACAAGAACAAAATACTCAGGAGCTGTCCCG (double strand) [B2-1_VAllm probe]”, the binding result is recorded as “no binding”.

In the case of “CAGCGGGTGCCTTTGTTCGGTGATAGCCAGGACTTTTAGCCCCGTTTAGGAAGATTCTGCCCTACAAAGTCCCAAATGCCAAAAAAGCATGATTACCCGATTGACTTCGGATAGGGCCAACCATAACATGGGATCCCAATAGCGGCAAAAACCTGAAATTTACGCTACGGATACCCTGACTGGGGATCCCAACAAGAACAAAATACTCAGGAGCTGTCCCG (double strand) [B2-1_V1m probe]”, the binding result is “binds”.

“CAGCGGGTGCCTTTGTTCGGTGATAGCCAGGACTTTTAGCCCCGTTTAGGAAGATTCTGCCCTACGGGATCCCAAATGCCAAAAAAGCATGATTACCCGATTGACTTCGGATAGGGC (double strand) [IR-V1 probe]”: the binding result is given as “binds”.

Consider “CAGCGGGTGCCTTTGTTCGGTGATAGCCAGGACTTTTAGCCCCGTTTAGGAAGATTCTGCCCTACGGGATCCCAAATGCCAAAAAAGCATGATTACCCGATTGACTTCGGATAGGGCCAACCATAACATGGGATCCCAATAGCGGCAAAAACCTGAAATTTACGCTACGGATACCCTGACTGAAAGTCCCAACAAGAACAAAATACTCAGGAGCTGTCCCG (double strand) [B2-1_V3m probe]”, for which the binding result is recorded as “binds”.

Regarding “CAGCGGGTGCCTTTGTTCGGTGATAGCCAGGACTTTTAGCCCCGTTTAGGAAGATTCTGCCCTACGGGATCCCAAATGCCAAAAAAGCATGATTACCCGATTGACTTCGGATAGGGCCAACCATAACATAAAGTCCCAATAGCGGCAAAAACCTGAAATTTACGCTACGGATACCCTGACTGGGGATCCCAACAAGAACAAAATACTCAGGAGCTGTCCCG (double strand) [B2-1_V2m probe]”, the binding result was “binds”.

For the sequence “CGATTGACTTCGGATAGGGCCAACCATAACATGGGATCCCAATAGCGGCAAAAACCTGAAATTTACGCTACGGATACCCTGA (double strand) [IR-V2 probe]”, the binding result is listed as “binds”.
